These are yes or no findings as the source states them, for the method shown. Binding seen in cells or lysates may run through a third protein. Some entries that bind do so weakly or less than the wild type. For some of these results: Tags and fused reporters may be left off the sequences shown.

Chains of the proteins cited; added tags and fusions are not shown.
UniProt Q8R0K9: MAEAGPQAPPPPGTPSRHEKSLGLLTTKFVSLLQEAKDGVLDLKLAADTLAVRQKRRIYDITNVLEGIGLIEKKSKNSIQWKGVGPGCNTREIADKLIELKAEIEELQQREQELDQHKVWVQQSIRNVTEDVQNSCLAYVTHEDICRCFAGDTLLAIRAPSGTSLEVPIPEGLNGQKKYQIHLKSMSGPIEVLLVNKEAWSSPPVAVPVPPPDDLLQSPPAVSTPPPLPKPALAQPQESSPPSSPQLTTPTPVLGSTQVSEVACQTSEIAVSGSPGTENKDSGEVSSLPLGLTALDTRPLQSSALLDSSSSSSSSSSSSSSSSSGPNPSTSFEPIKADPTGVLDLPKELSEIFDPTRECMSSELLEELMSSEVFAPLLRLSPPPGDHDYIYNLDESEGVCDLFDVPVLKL

For assay [1], the target named is E2f4 (endogenous, mouse airway epithelial cells) (mouse (endogenous in mTEC ALI cultures)) (UniProt Q8R0K9). Nature of the assay: proximity ligation; fixed ALI cultures from E2f4 f/f; R26 CreERT2/+ airway progenitors, anti-E2f4 and anti-Deup1 primary antibodies; tamoxifen-treated (E2f4-deficient) cultures as negative control.
Assay [2] shares this target. Put plainly: co-IP; endogenous proteins in mTEC ALI day 3 lysate (NP-40 lysis buffer, 250 mM KCl); precipitated with anti-E2F4 agarose beads, rabbit IgG beads as control, 1-2 h on ice; blot for Deup1.
Assay [3] deals with mouse E2f4 expressed from pcDNA in 293FT cells (mouse) (UniProt Q8R0K9). Put plainly: co-IP; 293FT cells transfected with the plasmids, NP-40 lysis buffer (250 mM KCl); precipitated with anti-E2F4 agarose beads, rabbit IgG beads as control, 1-2 h on ice; western blot. For orientation: In western blotting, separated proteins are transferred to a membrane and probed.

B1: Deup1 (endogenous, mouse airway epithelial cells) (protein, UniProt Q7M6Y5 1-601)
chain: MENQAHTTAGASPCEAELQELMEQIDIMVSNKKLDWERKMRALETRLDLRDQELANAQTCLDQKGQEVGLLRQKLDSLEKCNLVMTQNYEGQLQTLKAQFSKLTSNFEKLRLHQMKQNQIHRKESSSKEELPFELSSLNQKLEEFRAKSREWDKQEVLYQTHLVSLDAQQKLLSEKCSQFQKQAQNYQTQLNGKKQCAEDSSSEIPRLVCESDPGCEATQRDEFIIEKLKSAVSEIALSRNKLQDENQKLLQELKMYQRQCQAMEAGLSEVKSELQSRDDLLRIIEMERLHLHRELLRMGEVQTAQDNRKRVESSYSPSPKEAERKRKELFPMVSDQPNHEKELSKMRSQLYQEEGLCSEQERLRSEISELTQELHQKEVTIATVMKKAALLERQLKIELEIKERMLAKQQVSDRRYKAVRTENTHLKGMMGDLDPARYLAVDLSNKKHSQCTSINKLEYENERLRSDLAKLHGNGKAAWPNQSSYGEAGAYVFQSQLKTETSGDRISQDCELNRSPTPLSPLPFQTKEMASPLVGDNEVLALSPPDISFRASLAAQHFLMEEERRAKELEKLLNTHIDELQRHTEFTLNKYTKLKQSRHI
As to B1, the binding entry in assay [1] and in assay [2] was “binds” each time.

B2: Flag-tagged Deup1 expressed in 293FT cells (protein, UniProt Q7M6Y5 1-601)
chain: MENQAHTTAGASPCEAELQELMEQIDIMVSNKKLDWERKMRALETRLDLRDQELANAQTCLDQKGQEVGLLRQKLDSLEKCNLVMTQNYEGQLQTLKAQFSKLTSNFEKLRLHQMKQNQIHRKESSSKEELPFELSSLNQKLEEFRAKSREWDKQEVLYQTHLVSLDAQQKLLSEKCSQFQKQAQNYQTQLNGKKQCAEDSSSEIPRLVCESDPGCEATQRDEFIIEKLKSAVSEIALSRNKLQDENQKLLQELKMYQRQCQAMEAGLSEVKSELQSRDDLLRIIEMERLHLHRELLRMGEVQTAQDNRKRVESSYSPSPKEAERKRKELFPMVSDQPNHEKELSKMRSQLYQEEGLCSEQERLRSEISELTQELHQKEVTIATVMKKAALLERQLKIELEIKERMLAKQQVSDRRYKAVRTENTHLKGMMGDLDPARYLAVDLSNKKHSQCTSINKLEYENERLRSDLAKLHGNGKAAWPNQSSYGEAGAYVFQSQLKTETSGDRISQDCELNRSPTPLSPLPFQTKEMASPLVGDNEVLALSPPDISFRASLAAQHFLMEEERRAKELEKLLNTHIDELQRHTEFTLNKYTKLKQSRHI
For the molecule B2, in assay [3], the binding result is “binds”.

B3: human SAS6 expressed in 293FT cells (protein, UniProt Q6UVJ0 1-657)
chain: MSQVLFHQLVPLQVKCKDCEERRVSIRMSIELQSVSNPVHRKDLVIRLTDDTDPFFLYNLVISEEDFQSLKFQQGLLVDFLAFPQKFIDLLQQCTQEHAKEIPRFLLQLVSPAAILDNSPAFLNVVETNPFKHLTHLSLKLLPGNDVEIKKFLAGCLKCSKEEKLSLMQSLDDATKQLDFTRKTLAEKKQELDKLRNEWASHTAALTNKHSQELTNEKEKALQAQVQYQQQHEQQKKDLEILHQQNIHQLQNRLSELEAANKDLTERKYKGDSTIRELKAKLSGVEEELQRTKQEVLSLRRENSTLDVECHEKEKHVNQLQTKVAVLEQEIKDKDQLVLRTKEAFDTIQEQKVVLEENGEKNQVQLGKLEATIKSLSAELLKANEIIKKLQGDLKTLMGKLKLKNTVTIQQEKLLAEKEEKLQKEQKELQDVGQSLRIKEQEVCKLQEQLEATVKKLEESKQLLKNNEKLITWLNKELNENQLVRKQDVLGPSTTPPAHSSSNTIRSGISPNLNVVDGRLTYPTCGIGYPVSSAFAFQNTFPHSISAKNTSHPGSGTKVQFNLQFTKPNASLGDVQSGATISMPCSTDKENGENVGLESKYLKKREDSIPLRGLSQNLFSNSDHQRDGTLGALHTSSKPTALPSASSAYFPGQLPNS
As for B3, in assay [3], the binding result is reported as “binds”.

The values above are taken from publication PMC5500891.
